# Assay results taken from PubChem BioAssay AID504834 (National Center for Advancing Translational Sciences (NCATS), 2011).
# Screen size: about 320,000 compounds; about 22,000 (6.9%) were called active. This list was built around the results that the source calls inconclusive (neither active nor inactive); the mix of calls is not that of the screen. Calls follow the shape of the dose curve; as a rule, active = well fitted inhibition curve with a large enough effect; inconclusive = small, poorly fitted or top-dose-only effect, or another doubt; inactive = no such curve, though single readings can be large or run the other way. A potency beside an inconclusive call is a rough fit, not a confirmed value.
# Assay: Primary qHTS for delayed death inhibitors of the malarial parasite plastid, 96 hour incubation
# Settings: P. falciparum luciferase reporter growth; series mostly up to 28.7 µM
# In short: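 Plates of compound plus infected erythrocytes (2% hematocrit, 0.05% parasitemia final) incubate 96 hours, 37 C, 5% CO2. Detection reagent added; reduced luminescence from the parasites' luciferase reporter flags inhibition.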
# % is scaled to controls: 0 for no effect and ±100 for the full control effect; potency is read from the fitted curve at half-maximal effect.
SMILES,Potency,"activity change, negative = inhibition"
CCN(CC)CCN(C(=O)c1ccc2c(c1)CCCC2)c1nc2ccc(C)cc2s1,"inconclusive: 2.94 µM [inhibitor, partial curve, poor fit]",
Cn1c2ccccc2c2c(C(=O)NCc3ccco3)cn(C3CCCCC3)c(=O)c21,"inconclusive: 18.5 µM [inhibitor, single point]",
O=C(CSc1ccc2nnc(-c3ccc(Cl)cc3)n2n1)N1CCCc2ccccc21,"inconclusive: 0.0037 µM [inhibitor, full curve, poor fit]",
COCCn1c(-c2cccc([N+](=O)[O-])c2)nc2c1c(=O)[nH]c(=O)n2Cc1ccccc1,active: 11.7 µM,
CCc1ccc(NC(=O)Cn2nnc(C(=O)NCc3ccc(OC)cc3)c2N)cc1,"inconclusive: 0.522 µM [inhibitor, full curve, poor fit]",
COCCSc1nnc(NC(=O)C2CC(=O)N(CCc3ccc(F)cc3)C2)s1 (centres undefined),"inconclusive: 0.657 µM [inhibitor, partial curve, poor fit]",
COc1cc(-c2noc(-c3ccccc3C(=O)NCc3ccco3)n2)cc(OC)c1OC,"inconclusive: 0.465 µM [inhibitor, partial curve, poor fit]",
CCN(CC)C(=O)c1sc(NC(=O)C(Sc2ccccc2)c2ccccc2)c(C(=O)OC(C)C)c1C (centres undefined),active: 0.415 µM,
O=C(NCC1CCCO1)c1ccc2c(=O)n(CC3CCCO3)c(SCC(=O)N3CCCC3)nc2c1 (centres undefined),"inconclusive: 18.5 µM [inhibitor, single point]",
CCOC(=O)N1N=C(C)CC1(O)c1ccccc1 (centres undefined),inactive,
COc1cc(C(=O)NCc2cccnc2)ccc1OCC(=O)Nc1cccc(C(F)(F)F)c1,"inconclusive: 11.7 µM [inhibitor, single point]",
Brc1cnc(N2CCCC2)nc1N1CCCCC1,"inconclusive: 11.7 µM [inhibitor, single point]",
CC(C)CCNC(=O)CNC(=S)N(Cc1ccccc1)Cc1cccnc1,"inconclusive: 11.7 µM [inhibitor, partial curve, poor fit]",
CCOC(=O)c1c(C)[nH]c(C(=O)OCC(=O)NC(C)(C)C)c1C,inactive,
COc1ccccc1NC(=O)Nc1cc(C(C)C)ccc1C,"inconclusive: 11.7 µM [inhibitor, partial curve]",
CC1(C)CC(=O)c2cnc(N3CCN(c4ccccc4)CC3)nc2C1,"inconclusive: 2.94 µM [inhibitor, partial curve, poor fit]",
CCN(CC)S(=O)(=O)c1cc(NC(=O)CN2C(=O)NC3(CCCc4ccccc43)C2=O)ccc1C (centres undefined),"inconclusive: 18.5 µM [inhibitor, single point]",
CN(C)CCN(C(=O)COc1ccc(Cl)cc1)c1nc2cc3c(cc2s1)OCO3,"inconclusive: 10.4 µM [inhibitor, single point]",
O=C(c1ccc(N2CCOCC2)c([N+](=O)[O-])c1)N1CCCC(C(F)(F)F)C1 (centres undefined),inactive,
CCCCC(C(=O)NC1CCCC1)N(C(=O)c1snc(C(N)=O)c1N)c1ccc(C)cc1 (centres undefined),inactive,
Cc1noc(C)c1S(=O)(=O)N1CCN(c2ccccc2)CC1,"inconclusive: 11.7 µM [inhibitor, partial curve, poor fit]",
CCCc1nnc(NC(=O)CCC(=O)N2CCN(S(=O)(=O)c3ccc(F)cc3)CC2)s1,"inconclusive: 10.4 µM [inhibitor, single point]",
COC(=O)c1sccc1N(C)S(C)(=O)=O,inactive,

# Quoted at random: 4 entries already listed.
SMILES,Potency,"activity change, negative = inhibition"
COc1cc(-c2noc(-c3ccccc3C(=O)NCc3ccco3)n2)cc(OC)c1OC,"inconclusive: 0.465 µM [inhibitor, partial curve, poor fit]",
O=C(c1ccc(N2CCOCC2)c([N+](=O)[O-])c1)N1CCCC(C(F)(F)F)C1 (centres undefined),inactive,
CCOC(=O)c1c(C)[nH]c(C(=O)OCC(=O)NC(C)(C)C)c1C,inactive,
CCc1ccc(NC(=O)Cn2nnc(C(=O)NCc3ccc(OC)cc3)c2N)cc1,"inconclusive: 0.522 µM [inhibitor, full curve, poor fit]",

# More compounds follow:

SMILES,Potency,"activity change, negative = inhibition"
CCC(C)NC(=O)c1cccc(C)c1 (centres undefined),inactive,
Cc1cccc(NC(=O)CCC(=O)NCCO)c1,"inconclusive: 10.4 µM [inhibitor, single point]",
Cc1ccccc1NC1=NC(=S)N(c2ccccc2)C12CCCCC2,active: 10.4 µM,
Cn1c(CNC(=O)c2ccc(Cl)cc2)nnc1SCC(=O)N1CCOCC1,"inconclusive: 10.4 µM [inhibitor, partial curve]",
CC(C)CN(C(=O)CCc1ccccc1Cl)c1c(N)n(Cc2ccccc2)c(=O)[nH]c1=O,"inconclusive: 18.5 µM [inhibitor, single point]",
CN1CCN(c2ccc([N+](=O)[O-])cc2NC(=O)c2ccccc2Cl)CC1,"inconclusive: 8.28 µM [inhibitor, partial curve, poor fit]",
Cn1cnc([N+](=O)[O-])c1Oc1ccc2ccccc2c1,inactive,
CC1(C)CC(=O)C(Sc2ccccc2[N+](=O)[O-])=C(O)C1,inactive,
COc1ccc(/C=C2\SC(=S)N(CCCC(=O)N3CCCCC3CCO)C2=O)cc1 (centres undefined),active: 8.28 µM,
C[N+]1(CCC(C(N)=O)(c2ccccc2)c2ccccc2)CCCCC1,"inconclusive: 19 µM [inhibitor, single point]",
CCOc1ccccc1OCC(=O)Nc1ccc(S(=O)(=O)Nc2ncccn2)cc1,"inconclusive: 3.7 µM [inhibitor, partial curve, poor fit]",
C=CCOn1c(=O)c(-c2cc3ccccc3o2)[n+]([O-])c2ccccc21,"inconclusive: 0.465 µM [inhibitor, partial curve, poor fit]",
CCOC(=O)N1CCC(=NNC(=O)c2cc3ccccc3cc2O)CC1,"inconclusive: 10.4 µM [inhibitor, single point]",
CCN(CCO)c1nc(NCc2ccccc2)c2cnn(C)c2n1,inactive,
O=c1c2ccccc2cnn1Cc1n[nH]c(=S)n1-c1ccccc1,inactive,
COc1ccc(C(=O)NC(C)c2cc(OC)c(OC)cc2Br)cc1 (centres undefined),inactive,
Cc1sc2nc(CN3CCOCC3)nc(NCCc3ccccc3)c2c1C,"inconclusive: 13.1 µM [inhibitor, partial curve, poor fit]",
COCCNC(=O)N1[C@H]2CC[C@@H]1C(C(=O)OC)=C(c1ccc(-c3ccccc3)c(F)c1)C2,"inconclusive: 3.29 µM [inhibitor, partial curve]",
O=C(CNc1ccccc1)N/N=C/c1c(O)ccc2ccccc12,inactive,
Cc1cc(C)cc(NC(=O)N2CCC(c3nc4ccccc4o3)CC2)c1,"inconclusive: 10.4 µM [inhibitor, single point]",
Cc1ccc(-c2nc(CS(=O)(=O)CC(=O)N3CCCCCC3)c(C)o2)cc1,"inconclusive: 11.7 µM [inhibitor, single point]",
COc1ccc(NC(=O)CSc2nc3c(c(=O)n2C)SCC3)cc1OC,inactive,
O=C(NCCc1nnc2ccc(SCC(=O)N3CCCC3)nn12)c1ccc(F)cc1,"inconclusive: 20.8 µM [inhibitor, single point]",

SMILES,Potency,"activity change, negative = inhibition"
COc1ccc(C(=O)N2CCN(C)C(=O)[C@@H]2C)cc1OC1CCN(C(C)=O)CC1,inactive,
Cc1cc(=O)[nH]c(SCC(=O)Nc2ccc(Cl)cn2)n1,inactive,
COc1ccc(C2=C3C(=O)OCC3Cc3ncn(Cc4ccccc4)c32)cc1 (centres undefined),"inconclusive: 2.94 µM [inhibitor, partial curve, poor fit]",
CC(C)(C)NC(=O)c1cccc2c1C(=O)c1ccccc1-2,"inconclusive: 16.5 µM [inhibitor, single point]",
COc1ccccc1C1C(C(N)=O)=C(C)Nc2nc(-c3ccccc3Cl)nn21 (centres undefined),"inconclusive: 18.5 µM [inhibitor, single point]",
Cc1ccc(CNC(=O)Cc2noc3ccccc23)cc1,inactive,
COCCn1c(C)cc(C(=O)CSc2nc3nc(C)cc(C)n3n2)c1C,"inconclusive: 1.47 µM [inhibitor, partial curve]",
O=c1oc2ccccc2cc1-c1nc2c(s1)CCCC2,inactive,
O=C(O)c1ccc(NCc2ccc3c(c2)OCO3)cc1,"inconclusive: 18.5 µM [inhibitor, single point]",
CCc1ccc(NC(=O)CSc2nc(=O)n(CCN(C)C)c3c2CCCC3)cc1,"inconclusive: 14.7 µM [inhibitor, single point]",
CN(C[C@H](Cc1ccccc1)N(C[C@H](CC1CCCCC1)N(CCc1ccccc1)N=O)N=O)N=O,"inconclusive: 16.5 µM [inhibitor, partial curve, poor fit]",
CNS(=O)(=O)c1cnccc1N1CCN(c2cccc(C(F)(F)F)c2)CC1,active: 14.7 µM,
COc1ccc(-c2cc3nc(C)cc(N4CC(C)CC(C)C4)n3n2)cc1 (centres undefined),"inconclusive: 18.5 µM [inhibitor, single point]",
CCc1nc(N2CCC(C)CC2)c2oc3ccccc3c2n1,,inactive: -2.71% [at 5.75 µM]
Clc1ccc(-c2csc(-c3ccncc3)n2)cc1,active: 0.185 µM,
Cc1ccc(Cn2nnc3c(=O)n(CC(=O)NCc4ccc5c(c4)OCO5)cnc32)cc1,"inconclusive: 0.928 µM [inhibitor, partial curve, poor fit]",
COc1ccc2nc(-c3ccccc3)cc(C(=O)OCC(=O)NC3CC3)c2c1,inactive,
COC(=O)c1ccc(COc2ccccc2/C=C(\C#N)C(=O)Nc2c(C)cc(C)cc2C)cc1,"inconclusive: 2.08 µM [inhibitor, partial curve, poor fit]",
COCCNC(=O)CN1C(=O)NC2(CCOc3ccccc32)C1=O (centres undefined),inactive,
CC(C)C(=O)Nc1ccc(C(=O)NNC(=O)NC2CCCCC2)cc1,"inconclusive: 8.28 µM [inhibitor, single point]",
COc1cc(OC)cc(C(=O)N=c2sc3ccccc3n2C)c1,inactive,
Cc1cc2[nH]c(=O)c(=O)[nH]c2cc1S(=O)(=O)Nc1ccccc1F,inactive,
CCn1c(=N)c(S(=O)(=O)c2ccc(F)cc2)cc2c(=O)n3ccccc3nc21,"inconclusive: 18.5 µM [inhibitor, single point]",
